The values that follow come from paper PMC11865524.

Amino acid sequences for entries named in this document (tags omitted). A change or cut given only in a name is not applied to a line headed by its entry.
UniProt P17676: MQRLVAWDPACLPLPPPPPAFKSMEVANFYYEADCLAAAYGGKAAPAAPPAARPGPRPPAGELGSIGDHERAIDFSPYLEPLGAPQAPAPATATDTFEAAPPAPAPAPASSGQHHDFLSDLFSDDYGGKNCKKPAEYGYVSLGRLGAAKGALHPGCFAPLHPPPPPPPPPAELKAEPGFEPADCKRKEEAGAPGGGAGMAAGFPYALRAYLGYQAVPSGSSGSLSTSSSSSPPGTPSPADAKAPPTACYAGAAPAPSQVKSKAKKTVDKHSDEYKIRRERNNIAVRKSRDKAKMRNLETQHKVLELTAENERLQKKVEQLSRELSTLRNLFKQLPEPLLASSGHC
UniProt P20823: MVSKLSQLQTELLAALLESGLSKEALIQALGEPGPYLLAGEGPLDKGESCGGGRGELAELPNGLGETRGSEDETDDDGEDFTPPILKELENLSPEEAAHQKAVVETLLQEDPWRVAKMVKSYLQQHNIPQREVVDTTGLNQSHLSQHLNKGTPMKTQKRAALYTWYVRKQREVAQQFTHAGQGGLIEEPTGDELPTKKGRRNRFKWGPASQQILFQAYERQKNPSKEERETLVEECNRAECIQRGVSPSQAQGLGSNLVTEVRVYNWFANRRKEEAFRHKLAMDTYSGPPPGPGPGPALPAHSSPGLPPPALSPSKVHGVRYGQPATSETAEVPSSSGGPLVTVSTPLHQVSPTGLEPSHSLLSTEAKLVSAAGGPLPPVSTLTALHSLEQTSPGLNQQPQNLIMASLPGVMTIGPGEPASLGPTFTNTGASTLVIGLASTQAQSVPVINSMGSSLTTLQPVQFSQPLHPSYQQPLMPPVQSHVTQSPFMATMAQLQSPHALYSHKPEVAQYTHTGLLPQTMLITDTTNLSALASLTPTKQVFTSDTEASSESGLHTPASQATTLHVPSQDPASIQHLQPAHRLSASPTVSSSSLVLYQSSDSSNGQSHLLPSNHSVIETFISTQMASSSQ
UniProt P29034: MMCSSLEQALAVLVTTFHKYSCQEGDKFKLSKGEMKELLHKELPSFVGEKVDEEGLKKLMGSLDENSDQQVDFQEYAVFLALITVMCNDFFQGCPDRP

Common to all, as to assay: co-IP; exogenous tagged proteins in HEK293T cells; lysate rotated with Anti-FLAG M2 or Anti-HA magnetic beads overnight at 4 °C, washed, immunoblot
A general note: In western blotting, separated proteins are transferred to a membrane and probed.

One assay has as its target CEBPB (UniProt P17676).
The target in assay [1] is HA-tagged HNF1A with the full-length sequence (UniProt P20823).
A further assay addresses T1, ETS1 (UniProt P14921).
T1 sequence: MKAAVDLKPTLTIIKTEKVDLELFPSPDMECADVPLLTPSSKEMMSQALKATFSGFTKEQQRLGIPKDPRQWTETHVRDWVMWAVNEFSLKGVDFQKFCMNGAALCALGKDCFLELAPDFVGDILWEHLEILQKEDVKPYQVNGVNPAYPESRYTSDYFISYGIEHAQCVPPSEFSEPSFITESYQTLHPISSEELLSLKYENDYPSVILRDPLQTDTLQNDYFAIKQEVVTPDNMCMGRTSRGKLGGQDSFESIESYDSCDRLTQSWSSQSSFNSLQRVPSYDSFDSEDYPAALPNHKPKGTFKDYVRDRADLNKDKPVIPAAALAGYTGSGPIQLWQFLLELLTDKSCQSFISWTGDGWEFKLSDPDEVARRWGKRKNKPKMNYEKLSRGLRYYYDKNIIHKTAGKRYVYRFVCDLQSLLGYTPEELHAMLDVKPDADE

These are yes or no findings as the source states them, for the method shown. In cells and extracts the contact can be indirect. For part of these data: A result given as binding can be weak or reduced; the word gives no strength.

“FLAG-tagged S100A2 (from UniProt P29034)”: the binding result with CEBPB is listed as “no binding”; in assay [1] it was “binds”; with ETS1, “no binding”.
